Data: US10112899B2 (ViiV HEALTHCARE UK LIMITED, priority 2014, dated 2018)

System: HIV in the HTLV-1 transformed cell line MT-4
Experiment: organism not typed
Type: cell-based
Details: MT4, 96 h

## Cc1ccc(-c2c(C)c3c(c(C)c2[C@H](OC(C)(C)C)C(=O)O)CN(C(=O)c2cccc(F)c2)C3)c(Cl)c1 [Example 326, (2S)-2-(tert-butoxy)-2-(6-(2-chloro-4-methylphenyl)-2-(3-fluorobenzoyl)-4,7-dimethylisoindolin-5-yl)acetic acid]
  IC50: 5 nM
